{"sequences": {"note": "Protein sequences, listed by entry. Tags and fused reporters are not part of them. Lines headed by an entry give the natural chain unless they say otherwise; changes in a name come on top.", "UniProt O43345": "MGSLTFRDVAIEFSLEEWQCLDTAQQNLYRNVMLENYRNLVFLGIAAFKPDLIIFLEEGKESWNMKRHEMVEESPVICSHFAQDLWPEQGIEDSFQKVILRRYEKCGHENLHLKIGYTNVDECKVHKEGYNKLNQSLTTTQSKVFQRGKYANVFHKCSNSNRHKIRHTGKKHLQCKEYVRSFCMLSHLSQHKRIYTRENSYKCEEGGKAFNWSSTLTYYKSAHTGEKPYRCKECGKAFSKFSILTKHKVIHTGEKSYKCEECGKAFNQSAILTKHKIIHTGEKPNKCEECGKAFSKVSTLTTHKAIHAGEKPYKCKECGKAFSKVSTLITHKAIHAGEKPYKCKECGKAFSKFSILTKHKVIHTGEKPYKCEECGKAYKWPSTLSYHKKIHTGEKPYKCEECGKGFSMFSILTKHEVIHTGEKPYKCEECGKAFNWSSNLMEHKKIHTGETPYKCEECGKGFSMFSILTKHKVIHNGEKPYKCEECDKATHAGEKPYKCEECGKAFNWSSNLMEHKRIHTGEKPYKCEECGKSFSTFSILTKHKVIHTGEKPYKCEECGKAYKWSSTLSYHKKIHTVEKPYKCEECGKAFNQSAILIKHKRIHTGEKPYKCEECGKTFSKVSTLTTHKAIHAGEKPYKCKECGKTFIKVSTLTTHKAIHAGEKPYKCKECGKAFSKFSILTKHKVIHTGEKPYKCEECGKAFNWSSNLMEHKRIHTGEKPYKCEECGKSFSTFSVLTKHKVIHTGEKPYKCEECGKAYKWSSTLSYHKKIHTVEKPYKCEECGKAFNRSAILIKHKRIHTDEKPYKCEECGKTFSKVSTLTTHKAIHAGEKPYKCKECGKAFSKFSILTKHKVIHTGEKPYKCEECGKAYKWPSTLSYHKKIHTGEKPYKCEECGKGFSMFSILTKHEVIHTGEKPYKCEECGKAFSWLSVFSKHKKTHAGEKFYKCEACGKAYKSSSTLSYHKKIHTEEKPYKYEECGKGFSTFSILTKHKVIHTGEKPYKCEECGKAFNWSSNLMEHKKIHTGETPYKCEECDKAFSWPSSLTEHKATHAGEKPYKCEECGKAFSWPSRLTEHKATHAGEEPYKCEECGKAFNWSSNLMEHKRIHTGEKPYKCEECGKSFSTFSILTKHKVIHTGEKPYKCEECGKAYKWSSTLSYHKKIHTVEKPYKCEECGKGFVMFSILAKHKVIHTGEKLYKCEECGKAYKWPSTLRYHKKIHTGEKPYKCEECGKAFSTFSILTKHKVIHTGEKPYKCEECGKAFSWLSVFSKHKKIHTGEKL", "UniProt O60313": "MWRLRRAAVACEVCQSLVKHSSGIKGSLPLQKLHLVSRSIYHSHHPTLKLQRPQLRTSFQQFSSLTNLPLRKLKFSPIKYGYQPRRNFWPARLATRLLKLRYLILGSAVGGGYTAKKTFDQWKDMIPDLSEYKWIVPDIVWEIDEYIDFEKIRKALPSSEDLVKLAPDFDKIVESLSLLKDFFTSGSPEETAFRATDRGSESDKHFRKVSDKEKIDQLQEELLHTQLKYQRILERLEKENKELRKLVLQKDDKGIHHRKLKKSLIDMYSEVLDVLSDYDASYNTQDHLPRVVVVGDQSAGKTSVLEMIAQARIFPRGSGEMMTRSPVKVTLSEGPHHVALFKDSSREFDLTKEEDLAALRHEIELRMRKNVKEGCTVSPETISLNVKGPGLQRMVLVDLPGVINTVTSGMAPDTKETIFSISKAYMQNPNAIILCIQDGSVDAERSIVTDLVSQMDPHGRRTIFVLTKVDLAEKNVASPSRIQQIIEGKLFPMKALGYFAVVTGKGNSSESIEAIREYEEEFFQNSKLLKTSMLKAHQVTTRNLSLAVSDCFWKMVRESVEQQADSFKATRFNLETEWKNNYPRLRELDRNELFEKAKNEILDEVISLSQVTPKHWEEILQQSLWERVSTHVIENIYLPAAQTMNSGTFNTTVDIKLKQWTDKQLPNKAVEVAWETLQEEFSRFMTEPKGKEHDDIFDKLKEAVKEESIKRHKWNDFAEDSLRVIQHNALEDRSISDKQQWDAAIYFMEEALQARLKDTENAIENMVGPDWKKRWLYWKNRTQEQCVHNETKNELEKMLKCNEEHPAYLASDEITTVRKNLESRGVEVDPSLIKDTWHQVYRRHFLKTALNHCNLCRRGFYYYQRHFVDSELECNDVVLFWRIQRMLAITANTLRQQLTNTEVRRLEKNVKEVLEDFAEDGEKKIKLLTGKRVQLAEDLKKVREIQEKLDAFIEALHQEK", "UniProt O60701": "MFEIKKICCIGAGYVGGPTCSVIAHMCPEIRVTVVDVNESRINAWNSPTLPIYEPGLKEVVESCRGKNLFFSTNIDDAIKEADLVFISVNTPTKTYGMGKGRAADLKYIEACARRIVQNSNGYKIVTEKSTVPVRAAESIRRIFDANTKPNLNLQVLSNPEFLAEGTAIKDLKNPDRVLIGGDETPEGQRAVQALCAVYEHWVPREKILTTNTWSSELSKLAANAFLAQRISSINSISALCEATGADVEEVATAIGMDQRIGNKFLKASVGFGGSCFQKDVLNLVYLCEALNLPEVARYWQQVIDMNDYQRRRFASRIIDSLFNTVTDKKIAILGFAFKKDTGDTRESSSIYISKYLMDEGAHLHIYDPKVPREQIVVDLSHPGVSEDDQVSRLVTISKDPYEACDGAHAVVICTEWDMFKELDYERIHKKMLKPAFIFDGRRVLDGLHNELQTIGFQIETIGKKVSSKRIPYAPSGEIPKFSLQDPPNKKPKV", "UniProt O60333": "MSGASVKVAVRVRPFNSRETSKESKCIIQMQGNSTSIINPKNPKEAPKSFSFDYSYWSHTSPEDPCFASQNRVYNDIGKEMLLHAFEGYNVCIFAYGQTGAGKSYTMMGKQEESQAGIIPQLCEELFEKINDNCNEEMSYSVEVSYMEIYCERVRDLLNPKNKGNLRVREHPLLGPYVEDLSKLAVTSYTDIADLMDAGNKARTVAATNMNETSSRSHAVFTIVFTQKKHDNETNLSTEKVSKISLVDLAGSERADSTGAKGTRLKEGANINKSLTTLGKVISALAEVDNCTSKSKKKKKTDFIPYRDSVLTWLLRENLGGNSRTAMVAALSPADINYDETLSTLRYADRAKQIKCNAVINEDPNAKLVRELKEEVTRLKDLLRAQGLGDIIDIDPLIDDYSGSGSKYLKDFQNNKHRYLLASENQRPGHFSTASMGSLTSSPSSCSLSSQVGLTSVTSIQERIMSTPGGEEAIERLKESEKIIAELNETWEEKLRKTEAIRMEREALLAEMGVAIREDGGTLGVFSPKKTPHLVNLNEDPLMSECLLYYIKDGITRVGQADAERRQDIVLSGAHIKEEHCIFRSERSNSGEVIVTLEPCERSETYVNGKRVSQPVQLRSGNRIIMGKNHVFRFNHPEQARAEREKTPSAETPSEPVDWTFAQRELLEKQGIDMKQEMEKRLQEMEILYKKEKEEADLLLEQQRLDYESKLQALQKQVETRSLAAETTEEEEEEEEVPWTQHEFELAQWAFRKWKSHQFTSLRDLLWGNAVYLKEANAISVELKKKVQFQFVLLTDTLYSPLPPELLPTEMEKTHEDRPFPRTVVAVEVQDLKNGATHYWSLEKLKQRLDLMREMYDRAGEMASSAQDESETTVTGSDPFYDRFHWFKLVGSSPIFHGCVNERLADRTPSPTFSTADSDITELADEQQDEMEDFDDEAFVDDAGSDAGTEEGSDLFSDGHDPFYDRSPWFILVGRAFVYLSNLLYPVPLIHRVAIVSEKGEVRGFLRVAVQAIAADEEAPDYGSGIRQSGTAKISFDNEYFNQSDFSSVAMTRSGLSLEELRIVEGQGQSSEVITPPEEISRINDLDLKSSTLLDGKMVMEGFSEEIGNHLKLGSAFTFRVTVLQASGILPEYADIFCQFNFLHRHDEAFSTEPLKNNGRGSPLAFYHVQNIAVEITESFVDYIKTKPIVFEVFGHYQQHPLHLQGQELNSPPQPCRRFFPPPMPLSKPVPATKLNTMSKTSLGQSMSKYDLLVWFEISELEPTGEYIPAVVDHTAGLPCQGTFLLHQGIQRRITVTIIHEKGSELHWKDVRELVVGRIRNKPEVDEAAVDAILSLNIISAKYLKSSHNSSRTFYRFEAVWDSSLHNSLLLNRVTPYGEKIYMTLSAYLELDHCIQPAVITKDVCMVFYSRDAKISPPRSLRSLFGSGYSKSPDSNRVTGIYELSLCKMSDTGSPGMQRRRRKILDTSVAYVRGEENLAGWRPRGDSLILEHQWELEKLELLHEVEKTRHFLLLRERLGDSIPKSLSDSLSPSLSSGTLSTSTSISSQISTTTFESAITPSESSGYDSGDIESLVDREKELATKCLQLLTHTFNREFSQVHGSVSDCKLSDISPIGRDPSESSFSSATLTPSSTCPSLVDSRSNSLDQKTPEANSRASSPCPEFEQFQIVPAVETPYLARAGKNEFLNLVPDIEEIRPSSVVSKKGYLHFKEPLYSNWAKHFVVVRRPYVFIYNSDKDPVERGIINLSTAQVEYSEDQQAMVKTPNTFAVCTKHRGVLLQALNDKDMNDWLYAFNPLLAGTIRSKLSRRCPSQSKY", "UniProt O75368": "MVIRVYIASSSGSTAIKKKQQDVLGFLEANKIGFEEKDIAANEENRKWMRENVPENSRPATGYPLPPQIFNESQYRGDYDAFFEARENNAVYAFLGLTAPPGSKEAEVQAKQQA", "UniProt O60568": "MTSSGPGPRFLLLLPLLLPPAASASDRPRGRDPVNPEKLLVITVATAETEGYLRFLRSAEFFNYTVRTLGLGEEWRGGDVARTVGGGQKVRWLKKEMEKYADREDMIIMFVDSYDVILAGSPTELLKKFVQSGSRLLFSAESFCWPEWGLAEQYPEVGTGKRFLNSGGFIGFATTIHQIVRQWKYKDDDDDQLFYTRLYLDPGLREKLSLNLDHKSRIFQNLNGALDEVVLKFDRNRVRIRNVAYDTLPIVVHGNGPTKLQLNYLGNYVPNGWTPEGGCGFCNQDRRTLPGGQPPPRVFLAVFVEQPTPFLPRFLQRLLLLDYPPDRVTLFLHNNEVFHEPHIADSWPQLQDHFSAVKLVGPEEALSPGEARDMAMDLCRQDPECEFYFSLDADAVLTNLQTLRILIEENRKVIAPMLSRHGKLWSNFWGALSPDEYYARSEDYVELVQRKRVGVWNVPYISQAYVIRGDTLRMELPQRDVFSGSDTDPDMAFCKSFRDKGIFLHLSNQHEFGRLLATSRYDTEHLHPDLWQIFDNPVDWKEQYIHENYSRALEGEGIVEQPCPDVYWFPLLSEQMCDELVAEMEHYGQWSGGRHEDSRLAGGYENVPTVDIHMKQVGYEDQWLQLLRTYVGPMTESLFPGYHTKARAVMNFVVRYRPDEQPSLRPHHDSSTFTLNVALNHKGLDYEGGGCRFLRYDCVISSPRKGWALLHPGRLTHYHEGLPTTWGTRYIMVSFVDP", "UniProt O75081": "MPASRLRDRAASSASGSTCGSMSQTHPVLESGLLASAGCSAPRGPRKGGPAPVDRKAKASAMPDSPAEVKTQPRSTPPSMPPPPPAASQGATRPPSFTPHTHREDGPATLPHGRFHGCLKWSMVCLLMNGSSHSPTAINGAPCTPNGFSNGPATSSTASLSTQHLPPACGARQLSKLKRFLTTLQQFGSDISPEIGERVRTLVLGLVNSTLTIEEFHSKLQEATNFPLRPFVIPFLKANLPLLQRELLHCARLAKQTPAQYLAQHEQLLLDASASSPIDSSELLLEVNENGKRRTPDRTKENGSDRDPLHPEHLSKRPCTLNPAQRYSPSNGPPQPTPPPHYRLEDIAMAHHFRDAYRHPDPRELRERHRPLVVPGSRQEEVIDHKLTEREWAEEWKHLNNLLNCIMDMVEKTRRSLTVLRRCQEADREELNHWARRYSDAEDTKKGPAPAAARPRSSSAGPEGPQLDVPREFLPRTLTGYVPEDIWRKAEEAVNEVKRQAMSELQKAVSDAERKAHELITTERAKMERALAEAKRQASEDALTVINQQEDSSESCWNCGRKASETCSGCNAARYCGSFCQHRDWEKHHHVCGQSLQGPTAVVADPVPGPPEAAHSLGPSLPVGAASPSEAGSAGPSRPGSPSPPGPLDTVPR", "UniProt O43488": "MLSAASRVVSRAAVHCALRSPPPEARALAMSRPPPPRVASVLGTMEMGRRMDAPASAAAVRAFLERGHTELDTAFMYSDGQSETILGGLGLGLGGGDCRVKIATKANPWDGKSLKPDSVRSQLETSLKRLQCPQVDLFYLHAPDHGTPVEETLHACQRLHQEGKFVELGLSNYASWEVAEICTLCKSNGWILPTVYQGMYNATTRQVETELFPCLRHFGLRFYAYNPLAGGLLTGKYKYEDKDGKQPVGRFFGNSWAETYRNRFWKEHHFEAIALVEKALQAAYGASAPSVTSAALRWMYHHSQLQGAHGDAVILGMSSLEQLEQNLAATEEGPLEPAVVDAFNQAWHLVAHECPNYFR", "UniProt O43598": "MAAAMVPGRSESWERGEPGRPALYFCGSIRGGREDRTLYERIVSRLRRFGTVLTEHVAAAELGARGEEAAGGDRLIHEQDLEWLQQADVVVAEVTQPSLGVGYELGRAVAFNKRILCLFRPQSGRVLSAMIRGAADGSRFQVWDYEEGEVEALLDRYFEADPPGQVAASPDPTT"}, "source": "the supplement of paper PMC12819154", "about": "“High-throughput peptide-centric local stability assay extends protein–ligand identification to membrane proteins, tissues and bacteria” (Nature Structural & Molecular Biology, 2025)", "note": "Some of the results follow. Most values lie at the level of the controls, where differences are scatter."}
{"compound": "Cc1nc(Nc2ncc(C(=O)Nc3c(C)cccc3Cl)s2)cc(N2CCN(CCO)CC2)n1 [dasatinib]", "assay": "log2 fold change of tryptic peptide abundance, ligand vs vehicle (limited proteolysis) (log2 ratio); higher = more trypsin-susceptible (destabilized)", "conditions": "ligand concentration: 5 uM; sample: K562 cleared lysate"}
{"target": "ANKRD17 (peptide sequence: AGHVCTVQFLISK, peptide start residue: 640) (UniProt O75179)", "log2 fold change": -0.434}
{"target": "UniProt O43345 (peptide sequence: LNQSLTTTQSK, peptide start residue: 133)", "log2 fold change": 0.0636}
{"target": "OPA1 (peptide sequence: SPVKVTLSEGPHHVALFK, peptide start residue: 325) (UniProt O60313)", "log2 fold change": 0.427}
{"target": "UGDH (peptide sequence: YIEACAR, peptide start residue: 108) (UniProt O60701)", "log2 fold change": 0.198}
{"target": "KIF1B (peptide sequence: VTGIYELSLCK, peptide start residue: 1438) (UniProt O60333)", "log2 fold change": 0.608}
{"target": "STX10 (peptide sequence: EILAGKPAAQK, peptide start residue: 121) (UniProt O60499)", "log2 fold change": -0.198}
{"target": "NDUFS4 (peptide sequence: NGWSYDIEER, peptide start residue: 141) (UniProt O43181)", "log2 fold change": -0.164}
{"target": "UniProt O75290 (peptide sequence: GSNLNQHR, peptide start residue: 569)", "log2 fold change": 0.487}
{"target": "UniProt O43361 (peptide sequence: KSHLVQHQK, peptide start residue: 450)", "log2 fold change": -0.152}
{"target": "RAD21 (peptide sequence: RKGGEADNLDEFLK, peptide start residue: 405) (UniProt O60216)", "log2 fold change": 0.247}
{"target": "PSMD3 (peptide sequence: HDADGQATLLNLLLR, peptide start residue: 242) (UniProt O43242)", "log2 fold change": 0.645}
{"target": "SH3BGRL (peptide sequence: VYIASSSGSTAIK, peptide start residue: 5) (UniProt O75368)", "log2 fold change": 0.0746}
{"target": "NDUFS2 (peptide sequence: IIAQCLNK, peptide start residue: 343) (UniProt O75306)", "log2 fold change": -0.299}
{"target": "STRN (peptide sequence: SVIDTSTIVR, peptide start residue: 259) (UniProt O43815)", "log2 fold change": -0.0606}
{"target": "HMMR (peptide sequence: ENTTAELTEEINKWR, peptide start residue: 566) (UniProt O75330)", "log2 fold change": -0.262}
{"target": "SIAH2 (peptide sequence: LSCCPTCR, peptide start residue: 108) (UniProt O43255)", "log2 fold change": -0.449}
{"target": "SLC43A1 (peptide sequence: VTGDLFYTHVTTMGQR, peptide start residue: 245) (UniProt O75387)", "log2 fold change": -0.333}
{"target": "CLASP2 (peptide sequence: FKNYAELTVMK, peptide start residue: 1137) (UniProt O75122)", "log2 fold change": -0.195}
{"target": "SSNA1 (peptide sequence: CIEELCQKR, peptide start residue: 18) (UniProt O43805)", "log2 fold change": 0.653}
{"target": "ZNF292 (peptide sequence: KNNLENKNAK, peptide start residue: 2338) (UniProt O60281)", "log2 fold change": 0.159}
{"target": "CCNT2 (peptide sequence: LHVNDASHNHHSK, peptide start residue: 621) (UniProt O60583)", "log2 fold change": -0.126}
{"target": "TBL1X (peptide sequence: GVCTHTLTK, peptide start residue: 495) (UniProt O60907)", "log2 fold change": 0.43}
{"target": "EIF4E2 (peptide sequence: LLFQNLWK, peptide start residue: 232) (UniProt O60573)", "log2 fold change": -0.499}
{"target": "UniProt O60224 (peptide sequence: EVPEASGPQNDGK, peptide start residue: 125)", "log2 fold change": -0.232}
{"target": "PPP1R12B (peptide sequence: FSSGLFNKPEEPKDESPSSWR, peptide start residue: 419) (UniProt O60237)", "log2 fold change": -0.608}
{"target": "PPFIA3 (peptide sequence: MNDDHNKR, peptide start residue: 422) (UniProt O75145)", "log2 fold change": 0.688}
{"target": "ZZEF1 (peptide sequence: AVQGAELSEAGNGKR, peptide start residue: 1994) (UniProt O43149)", "log2 fold change": -0.424}
{"target": "SPAG7 (peptide sequence: FQPMNKIER, peptide start residue: 70) (UniProt O75391)", "log2 fold change": 0.414}
{"target": "UniProt O43299 (peptide sequence: LREVAFEYCQR, peptide start residue: 293)", "log2 fold change": 0.398}
{"target": "DNAJC6 (peptide sequence: ILEWIEGK, peptide start residue: 822) (UniProt O75061)", "log2 fold change": -0.349}
{"target": "PER1 (peptide sequence: AVLSLHTQKEEQAFLSR, peptide start residue: 781) (UniProt O15534)", "log2 fold change": 0.557}
{"target": "PLOD3 (peptide sequence: TLGLGEEWR, peptide start residue: 68) (UniProt O60568)", "log2 fold change": 0.221}
{"target": "CBFA2T3 (peptide sequence: RYSDAEDTKK, peptide start residue: 437) (UniProt O75081)", "log2 fold change": -1.27}
{"target": "AKR7A2 (peptide sequence: AAVHCALR, peptide start residue: 12) (UniProt O43488)", "log2 fold change": 0.52}
{"target": "GTPBP6 (peptide sequence: GNFEHLTEK, peptide start residue: 156) (UniProt O43824)", "log2 fold change": 0.43}
{"target": "UniProt O60613 (peptide sequence: FPQVQAFVR, peptide start residue: 101)", "log2 fold change": 0.134}
{"target": "UniProt O43598 (peptide sequence: FGTVLTEHVAAAELGAR, peptide start residue: 49)", "log2 fold change": 0.0906}
